{
  "source": "patent US6413952B1",
  "about": "“Agonizing dimeric cell-surface receptors with a receptor binding moiety and chelating metal” (SmithKline Beecham Corporation, priority 1997, dated 2002)",
  "molecular_target": "T1, G-CSF receptor (Mus musculus, UniProt P40223)",
  "T1 construct": "they express endogenous G-CSF receptors; endogenous in cells; host or cells: NFS60 murine myeloid cell line with a G-CSF-responsive luciferase reporter",
  "T1 sequence (P40223 26-837)": "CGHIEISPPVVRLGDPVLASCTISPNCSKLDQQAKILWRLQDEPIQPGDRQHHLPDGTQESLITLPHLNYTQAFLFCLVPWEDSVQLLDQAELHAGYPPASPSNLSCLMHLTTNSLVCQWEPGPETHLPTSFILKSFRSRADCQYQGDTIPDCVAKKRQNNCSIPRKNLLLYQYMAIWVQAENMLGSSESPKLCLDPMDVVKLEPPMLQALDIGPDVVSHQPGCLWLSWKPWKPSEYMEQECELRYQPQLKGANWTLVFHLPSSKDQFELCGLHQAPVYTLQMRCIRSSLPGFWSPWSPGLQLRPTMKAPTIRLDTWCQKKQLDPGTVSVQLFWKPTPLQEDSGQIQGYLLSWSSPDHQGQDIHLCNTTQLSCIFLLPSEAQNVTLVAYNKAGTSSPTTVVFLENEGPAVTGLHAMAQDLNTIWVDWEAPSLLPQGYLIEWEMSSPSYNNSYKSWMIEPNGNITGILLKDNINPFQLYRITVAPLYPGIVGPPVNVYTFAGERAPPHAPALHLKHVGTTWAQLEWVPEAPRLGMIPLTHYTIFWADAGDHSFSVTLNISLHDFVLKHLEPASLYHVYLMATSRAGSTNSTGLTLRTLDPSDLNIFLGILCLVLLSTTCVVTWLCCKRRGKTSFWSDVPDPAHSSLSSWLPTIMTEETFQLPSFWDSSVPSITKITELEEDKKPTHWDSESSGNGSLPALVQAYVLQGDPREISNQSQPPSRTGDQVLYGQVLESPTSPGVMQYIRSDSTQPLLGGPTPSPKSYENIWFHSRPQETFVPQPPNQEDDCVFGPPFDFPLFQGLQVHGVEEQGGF",
  "experiment": "Luciferase reporter gene assay on G-CSF-responsive NFS60 cell line",
  "type": "cell-based, murine",
  "conditions": "concentration range of 1 to 100 micromolar",
  "procedure": "Activity of compound 1a is below the threshold of 150% over background. The study was performed as a Luciferase assay configured on the G-CSF-responsive NFS60 cell line as described in Tian et al., Science 281, 257-259 (1998). The experiments shown in FIGS. 2-8 used the same NFS60 cell line.\nCompounds of the present invention are tested for potency as agonist of a dimeric cell-surface receptor in a Luciferase reporter gene assay such as described in Tian et al., Science 281, 257-259 (1998). For example, for G-CSF NFS60 cells (Holmes, et al., Proc. Natl. Acad. Sci. USA 82: 6687-6691 (1985)) are selected because they express endogenous G-CSF receptors closely matching the pattern of STAT (signal transducers and activators of transcription) activation observed in primary murine and human bone marrow cells.",
  "note": "Some entries share one result that the patent states for a list of compounds. At least one compound was matched to its structure with a doubt left.",
  "data": [
    {"smiles": "[Zn].c1ccc(C23NC(=Nc4nc5ccccc5[nH]4)NC2(c2ccccn2)NC(=Nc2nc4ccccc4[nH]2)N3)nc1.c1ccc(C23NC(=Nc4nc5ccccc5[nH]4)NC2(c2ccccn2)NC(=Nc2nc4ccccc4[nH]2)N3)nc1", "note": "(stereo not shown) [Compound 1, Bis{2,5-bis[2-benzimidazolylimino]-3a,6a-bis(2-pyridyl)-1,2,3,3a,4,5,6,6a-octahydroimidazo[4,5-d]imidazole-N,N′}-zinc(II)]", "values": [
      {"measurement": "activation, % of control, luciferase assay", "value": "above 150%"}
    ]}
  ]
}
